Test results reported in US20060052320A1, “Mammalian genes involved in rapamycin resistance and tumorgenesis annexin XIII genes” (priority 2002, published 2006).
At least one structure is not confirmed: it was looked up by name or label, or the drawing left a doubt.

Key:
[1] = test system: RapR5 clone (N2a cell with annexin XIII knockout construct); test: MTT proliferation assay, rapamycin resistance of RHKO clone RapR5 in the presence and absence of doxcycline; assay type: cell-based, mouse; conditions: knockout construct expressed vs suppressed by doxcycline; FIGS. 8A-8B
[2] = test system: mouse neuroblastoma cell line N2a cells; test: MTT proliferation assay, rapamycin mediated cell growth inhibition of N2a cells; assay type: cell-based

CO[C@H]1C[C@@H]2CC[C@@H](C)[C@@](O)(O2)C(=O)C(=O)N2CCCC[C@H]2C(=O)O[C@H]([C@H](C)C[C@@H]2CC[C@@H](O)[C@H](OC)C2)CC(=O)[C@H](C)/C=C(\C)[C@@H](O)[C@@H](OC)C(=O)[C@H](C)C[C@H](C)/C=C/C=C/C=C/1C [rapamycin]
inhibition by rapamycin in RapR5 clone [1]: reversible inhibition
killing or growth inhibition of N2a cells ([2]; 1 μM of rapamycin, RHKO library selection): all N2a cells were either killed or growth-inhibited
sensitivity of N2a cells to rapamycin mediated cell growth inhibition ([2]; at 10 nM, FIG. 7, MTT assay): sensitive
growth of N2a cells ([2]; rapamycin of a concentration of 1 μM or greater, FIG. 7): completely inhibited
